# Laboratory results: PMC11304246
# Chains of the proteins cited; added tags and fusions are not shown.
# UniProt P11940: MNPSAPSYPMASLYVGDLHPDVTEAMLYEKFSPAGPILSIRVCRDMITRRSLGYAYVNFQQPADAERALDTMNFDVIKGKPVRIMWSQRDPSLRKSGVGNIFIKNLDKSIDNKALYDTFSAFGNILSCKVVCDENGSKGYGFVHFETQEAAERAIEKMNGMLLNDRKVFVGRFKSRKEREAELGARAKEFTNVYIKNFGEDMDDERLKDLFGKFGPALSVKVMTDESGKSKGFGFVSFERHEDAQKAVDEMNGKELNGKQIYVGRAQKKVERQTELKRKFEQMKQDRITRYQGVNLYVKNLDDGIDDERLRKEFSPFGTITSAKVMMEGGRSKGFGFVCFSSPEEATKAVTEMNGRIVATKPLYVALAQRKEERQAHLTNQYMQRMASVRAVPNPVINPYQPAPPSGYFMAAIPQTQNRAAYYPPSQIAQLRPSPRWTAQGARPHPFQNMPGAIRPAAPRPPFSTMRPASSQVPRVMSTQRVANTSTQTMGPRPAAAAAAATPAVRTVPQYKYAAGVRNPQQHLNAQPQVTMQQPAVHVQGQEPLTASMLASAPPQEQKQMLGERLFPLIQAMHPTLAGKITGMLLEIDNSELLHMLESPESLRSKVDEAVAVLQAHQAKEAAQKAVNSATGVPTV
# These are yes or no findings as the source states them, for the method shown. Binding seen in cells or lysates may run through a third protein. Some results given as binding are weak or reduced against the parent protein; the word gives no strength. Sequences can lack the tags named with a protein.
# Experiments:
# [1] = target: T1, RRM domain of DAZ1 (1-496 amino acids)-FLAG, in HEK 293T cells (human) (UniProt Q9NQZ3); experiment: co-IP; agarose beads conjugated with FLAG, lysates of HEK 293T cells transfected with DAZ1-FLAG or its truncations; with or without RNase; blots for PABPC1 and CCT3
# T1 sequence: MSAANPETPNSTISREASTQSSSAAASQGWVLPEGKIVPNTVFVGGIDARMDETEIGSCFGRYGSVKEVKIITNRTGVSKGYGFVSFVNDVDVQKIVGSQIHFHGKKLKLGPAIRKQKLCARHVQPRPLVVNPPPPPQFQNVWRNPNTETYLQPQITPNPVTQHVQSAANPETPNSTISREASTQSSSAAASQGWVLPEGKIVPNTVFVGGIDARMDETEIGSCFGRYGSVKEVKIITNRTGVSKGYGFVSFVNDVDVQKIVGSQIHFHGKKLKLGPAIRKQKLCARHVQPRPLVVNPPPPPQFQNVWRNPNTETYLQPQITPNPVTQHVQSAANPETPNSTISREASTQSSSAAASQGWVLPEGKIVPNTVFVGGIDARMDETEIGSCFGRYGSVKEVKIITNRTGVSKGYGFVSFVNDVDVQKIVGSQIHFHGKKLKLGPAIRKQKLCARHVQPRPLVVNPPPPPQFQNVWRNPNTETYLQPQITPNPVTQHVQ
# [2] = target: T2, DAZ repeat region of DAZ1 (497-744 amino acids)-FLAG, in HEK 293T cells (human) (UniProt Q9NQZ3); experiment: as above
# T2 sequence: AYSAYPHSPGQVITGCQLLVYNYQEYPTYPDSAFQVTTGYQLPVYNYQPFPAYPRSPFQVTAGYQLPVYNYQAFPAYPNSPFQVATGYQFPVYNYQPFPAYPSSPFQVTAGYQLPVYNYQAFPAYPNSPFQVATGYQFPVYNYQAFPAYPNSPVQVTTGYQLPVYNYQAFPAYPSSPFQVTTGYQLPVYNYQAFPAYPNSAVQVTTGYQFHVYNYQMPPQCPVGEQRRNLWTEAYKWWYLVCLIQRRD
# [3] = target: T3, DAZ1-FLAG (1-744 amino acids), in HEK 293T cells (human) (UniProt Q9NQZ3); experiment: as above
# T3 sequence: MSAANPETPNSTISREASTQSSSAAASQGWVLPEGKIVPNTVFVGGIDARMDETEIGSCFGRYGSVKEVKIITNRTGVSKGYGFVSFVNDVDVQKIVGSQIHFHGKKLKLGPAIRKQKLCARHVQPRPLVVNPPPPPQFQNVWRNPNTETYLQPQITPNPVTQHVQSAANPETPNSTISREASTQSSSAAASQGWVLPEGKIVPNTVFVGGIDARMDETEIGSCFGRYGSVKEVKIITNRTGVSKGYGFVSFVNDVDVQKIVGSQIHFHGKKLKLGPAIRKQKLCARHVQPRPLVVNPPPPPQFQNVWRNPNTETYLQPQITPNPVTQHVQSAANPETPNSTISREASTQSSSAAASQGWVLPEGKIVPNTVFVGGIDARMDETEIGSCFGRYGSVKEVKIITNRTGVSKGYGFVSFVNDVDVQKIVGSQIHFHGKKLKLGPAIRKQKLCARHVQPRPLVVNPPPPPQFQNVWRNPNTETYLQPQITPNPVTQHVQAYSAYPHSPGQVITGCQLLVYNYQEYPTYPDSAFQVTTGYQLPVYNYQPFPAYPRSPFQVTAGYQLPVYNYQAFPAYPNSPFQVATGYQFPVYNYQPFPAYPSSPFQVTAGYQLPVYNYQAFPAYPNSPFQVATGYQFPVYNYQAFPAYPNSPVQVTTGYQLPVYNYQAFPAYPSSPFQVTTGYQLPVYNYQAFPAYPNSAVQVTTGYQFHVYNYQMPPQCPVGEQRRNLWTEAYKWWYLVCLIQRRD
# [4] = target: T4, DAZ1-FLAG-3×HA (deleted in azoospermia 1), stably overexpressed in DAOY cells (human) (UniProt Q9NQZ3); experiment: co-IP; anti-DAZ antibodies and Protein A/G magnetic beads, lysate of DAZ-overexpressing DAOY cells (10 mM Tris-HCl pH 7.5, 1 mM EDTA, 150 mM NaCl, 0.1% Triton X-100), 4 °C; with or without RNase A; blots for CCT3 and PABPC1
# T4 sequence: T3 sequence
binding [1],binding [2],binding [3],binding [4],Substance
no binding,binds,binds,–,"PABPC1, in HEK 293T cells (from UniProt P11940 1-636)"
–,–,–,binds,"PABPC1 (Poly A Binding Protein Cytoplasmic 1), in DAOY cells (from UniProt P11940 1-636)"
